Laboratory results from the supplement of paper PMC12578635.
± gives the standard deviation of the averaged measurements. The list shows a part of the results. Repeats are few or missing, and single values can be far off.

test system: RAW 264.7 macrophages infected with S. aureus JE2-lux; assay: host macrophage viability (CellTiter-Fluor) relative to DMSO vehicle; higher = more viable host cells; details: 10 µM; treatment time 4 h; gentamicin 50 µg/ml

| Compound | host macrophage viability [%] |
| --- | --- |
| Cc1ccccc1NC(=O)NC1CC2CCC(C1)N2Cc1ccccc1 (configuration not stated) | 123 |
| Brc1ccc2[nH]c3nc(SCc4nc5ccccc5[nH]4)nnc3c2c1 | 104 |
| Cc1ccc(C2C(C#N)=C(SCC(=O)N3c4ccccc4CC3C)NC3=C2C(=O)CCC3)o1 (configuration not stated) | 108 |
| COC(=O)c1ccc2c(c1)C1CC(C)(O2)N(c2ccc(OC)c(OC)c2)C(=O)N1 (configuration not stated) | 102 |
| COc1ccc(OC)c(NS(=O)(=O)c2ccc3[nH]c(=O)[nH]c3c2)c1 | 117 |
| CCN1CCN(c2nc(N3CCN(C(=O)c4ccco4)CC3)nc3c2cnn3C)CC1 | 111 |
| Cc1ccc(C(=O)Nc2ccccc2-c2nc3ccccc3[nH]c2=O)cc1[N+](=O)[O-] | 131 |
| COc1ccc(OC)c2[nH]c(=O)c(CCNC(=O)c3ccc(Cl)c([N+](=O)[O-])c3)cc12 | 123 |
| COc1ccc2ncc(C(=O)NC3CCCC3)c(O)c2c1 | 121 |
| Cc1cc(Br)ccc1NS(=O)(=O)c1c[nH]c(=O)[nH]c1=O | 117 |
| CC(=O)c1ccc(C(=O)N(Cc2ccncc2)c2nc3c(C)ccc(Cl)c3s2)cc1 | 106 |
| Cc1ccc(C)c(NC(=O)CS(=O)(=O)c2cn(C)c3ccccc23)c1 | 126 |
| O=C(COc1ncnc2ccccc12)Nc1cccc(-c2csnn2)c1 | 108 |
| CC(CNC(=O)Cn1c(-c2cccs2)cc2cccnc21)n1cncn1 (configuration not stated) | 124 |
| N#CC1=C(S)N(c2ccc(F)cc2)C(c2ccco2)NC1=O (configuration not stated) | 112 |
| COc1ccc2c(O)c(C(=O)NCCc3ccccc3)cnc2c1 | 108 |
| CC(Oc1ccccc1)C(=O)N1CCN=C1SCc1cccnc1 (configuration not stated) | 110 ± 4.8 |
| Cc1cccc(NC(=O)CSc2nc3c(c(-c4ccco4)c2C#N)CCCC3)c1 | 134 |
| Cc1cccc(-c2nc(N)n(C(=O)c3ccco3)n2)c1 | 109 |
| CCOc1ccc(N2CC(NC(=O)Nc3ncccc3C)CC2=O)cc1 (configuration not stated) | 107 |
| COc1cc(NC(=O)c2nn(C)c(C(F)(F)F)c2Cl)cc(OC)c1 | 118 |
| O=C1Cc2cc(NC(=O)c3ccccc3Br)ccc2N1 | 116 |
| CCC(SC1=Nc2ccccc2C2=NC(C(C)C)C(=O)N12)C(=O)Nc1ccc(OC)cc1OC (configuration not stated) | 98.2 |
| NC(=O)CSc1ncnc2c1oc1ccccc12 | 99.1 |
| Cc1ccc(Cl)cc1NC(=O)C(C)Sc1nc2ncccc2o1 (configuration not stated) | 127 |
| Cc1oc(-c2ccno2)cc1S(=O)(=O)Nc1ccc2c(c1)OCO2 | 117 |

Two of the compounds above, field by field.
Cc1ccc(C(=O)Nc2ccccc2-c2nc3ccccc3[nH]c2=O)cc1[N+](=O)[O-]
  host macrophage viability [%]: 131
Cc1oc(-c2ccno2)cc1S(=O)(=O)Nc1ccc2c(c1)OCO2
  host macrophage viability [%]: 117

Carrying on.

| Compound | host macrophage viability [%] |
| --- | --- |
| CC1(C)CC(=O)C2=C(C1)Nc1[nH]c(=O)[nH]c(=O)c1C2c1ccc(-c2cccc(C(F)(F)F)c2)o1 (configuration not stated) | 124 |
| COc1cc2cc3c(N)c(C(=O)N4c5ccccc5CC4C)sc3nc2cc1OC (configuration not stated) | 116 |
| COCCn1c2ccccc2n2c(=O)n(CC(=O)NC3CCCC3)nc12 | 119 |
| Cc1c(NC(=S)NCCc2ccccc2)c(=O)n(-c2ccccc2)n1C | 108 |
| CNC(=S)NCCc1cc2c(OC)ccc(OC)c2[nH]c1=O | 106 ± 5.3 |
| C=CCn1c(SCC(=O)Nc2nccs2)nc2sc(C)c(C)c2c1=O | 118 |
| Clc1ccc2nc(Nc3nc4cc5c(cc4s3)OCO5)sc2c1 | 132 ± 17 |
| CCCCCn1c(=S)[nH]c2cc(C(=O)NCc3ccc4c(c3)OCO4)ccc2c1=O | 108 |
| O=c1c2sc3ccccc3c2[nH]c(=S)n1CCc1c[nH]c2ccccc12 | 124 |
| Cc1cc(C(=O)CSc2nnc3ccccn23)c(C)n1Cc1ccccc1 | 132 |
| O=C(CSc1nnc2c(n1)[nH]c1ccc(Cl)cc12)NCc1ccc2c(c1)OCO2 | 106 |
| Cc1noc(C)c1CSc1ncnc2sc3c(c12)CCCC3 | 118 ± 7.8 |
| Cc1cnc(C(=O)N2CCC(c3nc4c(c(N5CCCC5)n3)CCC4)CC2)cn1 | 111 |
| CC(=O)Nc1ccc(Nc2c3c(nc4ncnn24)CCC3)cc1 | 103 |
| Cc1cc(C)c2c(n1)sc1c(=O)n(-c3ccc(C(=O)Nc4ccc(C)c(F)c4)cc3)cnc12 | 114 |
| Cc1c(-c2ccccc2)n[nH]c1C(=O)NC(c1ccccc1)c1cccnc1 (configuration not stated) | 113 |
| Cc1ccc(-c2cc3nc(C)cc(N4CCC(C(=O)Nc5ccc(F)c(F)c5)CC4)n3n2)cc1 | 116 |
| O=C(CCn1c(-c2ccncc2)cc2cccnc21)Nc1ccccc1F | 101 |
| COc1cc(OC)cc(-c2noc(Cn3c(=O)[nH]c4cc5c(cc4c3=O)OCO5)n2)c1 | 112 |
| O=c1nc(SCc2ccc([N+](=O)[O-])cc2)c2c(n1Cc1cccnc1)CCC2 | 129 |
| CSc1nnc(C)c(=O)n1COC(=O)c1ccc2ccccc2c1 | 103 |
| CCCc1cc(CNC(=O)C(C)N2C(=O)NC(C)(C)C2=O)on1 (configuration not stated) | 107 |
| COc1cccc(C(=O)Oc2coc(CSc3ncccn3)cc2=O)c1 | 108 |
| COC(=O)C1=C(C)Nc2nc(SCc3ccc([N+](=O)[O-])cc3)[nH]c(=O)c2C1c1cccnc1 (configuration not stated) | 114 |
| CCNc1ncnc2c1c(-c1ccccc1)cn2-c1ccccc1 | 121 |
| Cc1nc2ccccc2c(=O)n1-c1cccc(NS(=O)(=O)c2ccc(F)c(C(F)(F)F)c2)c1 | 121 |

Shown bar-delimited: part of the list above.
Compound | host macrophage viability [%]
O=C(CSc1nnc2c(n1)[nH]c1ccc(Cl)cc12)NCc1ccc2c(c1)OCO2 | 106
Cc1noc(C)c1CSc1ncnc2sc3c(c12)CCCC3 | 118 ± 7.8
Cc1cnc(C(=O)N2CCC(c3nc4c(c(N5CCCC5)n3)CCC4)CC2)cn1 | 111
CC(=O)Nc1ccc(Nc2c3c(nc4ncnn24)CCC3)cc1 | 103
Cc1cc(C)c2c(n1)sc1c(=O)n(-c3ccc(C(=O)Nc4ccc(C)c(F)c4)cc3)cnc12 | 114
Cc1c(-c2ccccc2)n[nH]c1C(=O)NC(c1ccccc1)c1cccnc1 (configuration not stated) | 113

Additional records

| Compound | host macrophage viability [%] |
| --- | --- |
| COc1ccc(NC(=O)c2ccc(SCCN3CCCCC3)nc2)cc1OC | 112 |
| Cc1ccc(NC(=O)C(=O)NCc2ccc3c(c2)OCO3)cc1F | 124 |
| CCCSc1nnc(NC(=O)c2cc(-c3ccc4c(c3)CC(C)O4)on2)s1 (configuration not stated) | 115 |
| COc1ccc(C2=C(C)C(N3CCC(C(=O)N4CCc5ccccc5C4)CC3)=NS2(=O)=O)cc1 | 123 |
| COc1ccc(Cl)cc1Nc1ncnc2c1c(C)c(C)n2-c1ccccc1 | 101 |
| NC(=O)Cn1c2ccc([N+](=O)[O-])cc2c2cc([N+](=O)[O-])ccc21 | 102 |
| CC(=O)N1CCN(C2=NC(=O)/C(=C\c3cccc([N+](=O)[O-])c3)S2)CC1 | 109 |
| COc1cc(OC)c(NC(=O)N2CCC(n3cnc4cccnc43)CC2)cc1Cl | 114 |
| O=S(=O)(Nc1cccc(-c2ccc(N3CCCC3)nn2)c1)c1cccnc1 | 127 |
| CS(=O)(=O)c1ccc(CC(=O)Nc2ncc(S(=O)(=O)c3ccc([N+](=O)[O-])cc3)s2)cc1 | 108 |
| O=C(NCc1nnnn1-c1ccc(Cl)cc1)c1ccc(-c2ccccc2)cc1 | 130 |
| C=CCn1c(Sc2nc(C)cs2)nc2c1c(=O)[nH]c(=O)n2C | 121 |
| O=C(NCCS(=O)(=O)N1CCCCC1)c1ccccc1 | 118 |
| Cc1ccc(C(=O)Nc2c(C#N)[nH]c3sc4c(c23)CCCC4)cc1 | 110 |
| CC(Sc1nnc2c(n1)[nH]c1ccccc12)C(=O)NC(c1ccccc1)c1ccccc1 (configuration not stated) | 118 |
| N#Cc1c(NC(=O)CS(=O)(=O)c2ccccc2)sc2c1CCCCC2 | 113 |
| O=C(CSc1ncccn1)Nc1ccc(C(=O)N2CCOCC2)cc1 | 121 |
| N#Cc1c(NC(=O)CSc2nnc3c(n2)-c2cccc4cccc-3c24)sc2c1CCCC2 | 105 |
| O=C(CCc1nnc2n(Cc3ccc(Cl)cc3)c(=O)c3ccccc3n12)NCc1cccnc1 | 133 |
| CCOc1ccc(-n2c(-c3ccccc3)cn3c4c(=O)n(CC(N)=O)c(=O)n(C)c4nc23)cc1 | 122 |
| COc1cccc(Cn2c(C3CC3)nc3ccc(NC(=O)c4ccncc4)cc3c2=O)c1 | 97.6 |
| O=C(CN1C(=O)/C(=C2\NC(=S)NC2=O)c2ccccc21)Nc1cccc(Cl)c1 | 117 |
| O=C(CC1CCN(C(=O)c2cc3ccccc3[nH]2)CC1)NCc1ccc2c(c1)OCO2 | 105 |
| CCc1ccc2c(c1)[C@H]1OCC[C@H]1C(c1ccc(C(=O)O)cc1)N2 (some centres not stated) | 135 |
| C=CCc1cccc2cc(C(=O)Nc3cc(C)ccc3C)c(=O)oc12 | 122 |
| O=c1[nH]c2cc3ccccc3c(=O)n2c2sc3c(c12)CCCC3 | 138 |

| Compound | host macrophage viability [%] |
| --- | --- |
| CC(=O)NCCNc1nc2c(c(=O)n(C)c(=O)n2C)n1CC(=O)Nc1ccccc1C | 99.8 |
| COCCNC(=O)C1c2ccccc2C(=O)N1Cc1ccc(F)cc1 (configuration not stated) | 105 |
| CC(Cc1cccs1)NC(=O)c1cnn(-c2ccc(F)cc2)c1 (configuration not stated) | 106 |
| O=C(Nc1nc2c(s1)COc1ccccc1-2)C1COc2ccccc2O1 (configuration not stated) | 112 |
| O=C(/C=C\c1ccc([N+](=O)[O-])cc1)NC1CC(=O)N(c2ccccc2)C1 (configuration not stated) | 123 |
| CSc1ncc(C(=O)Nc2ccc(C)c(C)c2)c(=O)n1C | 119 |
| CCOC(=O)CNC(=O)CS(=O)(=O)c1cn(CC(=O)N2CCCCCC2)c2ccccc12 | 113 |
| Cc1ccc(OCCCC(=O)Nc2sc3c(c2C(N)=O)CCC(C)C3)c(C)c1 (configuration not stated) | 113 |
| CCc1ccc(S(=O)(=O)c2nnn3c2nc(N2CCC(C(N)=O)CC2)c2cc(Cl)ccc23)cc1 | 132 |
| CC(=O)c1cccc(Nc2nc(Nc3ccc(F)c(Cl)c3)nc(N3CCOCC3)n2)c1 | 123 |
| CC(=O)c1ccc(NC(=O)c2sc3nc(C)cc(C)c3c2N)cc1 | 137 |
| Cc1cc(Cl)cc2sc(N(Cc3cccnc3)C(=O)CN3C(=O)CCC3=O)nc12 | 102 |
| CCCC(=O)Nc1ccc(NC(=O)c2ccncc2)cn1 | 110 |
| COc1ccc(NC(=O)c2cnc(SCC(=O)NCc3ccc4c(c3)OCO4)n(C)c2=O)cc1 | 116 |
| Cc1cccn2c(=O)c(/C=C(\C#N)C(=O)NC3CCCC3)c(Oc3ccccc3F)nc12 | 114 |
| CCc1ccc(C2NC(=O)NC3=C2C(=O)CCC3)cc1 (configuration not stated) | 110 |
| COc1cc(Nc2ncnc3c(-c4ccccc4)noc23)cc(OC)c1 | 96.5 |
| Cc1noc2ncnc(NCCN(C)C3CCCCC3)c12 | 127 |
| CN(Cc1ccccc1)S(=O)(=O)c1ccc(C(=O)Nc2cc(C(F)(F)F)ccc2Cl)cc1 | 127 |
| O=C(NCc1ccc(F)cc1)C1CCN(c2ccc3nnc(-c4ccccc4Cl)n3n2)CC1 | 127 |
| COc1ccc(C)cc1NC(=O)N1CCC(c2nnc(C(=O)Nc3cccc(F)c3)s2)CC1 | 82.2 |
| CCCCOc1ccc(C(=O)CSc2nc3c([nH]2)c(=O)n(C)c(=O)n3C)cc1 | 121 |
| CCOC(=O)c1c(NC(=O)c2ccc(N(C)C)cc2)sc2c1CC(C)(C)NC2(C)C | 140 |
| COc1cccc(NC(=O)NNC(=O)c2ccc3c(c2)NC(=O)C(C)(C)O3)c1 | 102 |
